Measurements taken from US12459934B2, “Pesticidal compounds” (BASF SE, priority 2018, dated 2025).
Some results were stated once for a whole list of compounds, not compound by compound. For at least one compound, name, drawing or mass did not settle the structure.

Columns and labels:
Type in all cases: in vivo
[1] = tested on: Orchid Thrips (Dichromothrips corbetti); assay: Orchid thrips, floral-immersion technique; conditions: 300 ppm; dipped orchid petals; adult thrips; 72 hours after treatment
Experimental: Dichromothrips corbetti adults used for bioassay were obtained from a colony maintained continuously under laboratory conditions. For testing purposes, the test compound is diluted in a 1:1 mixture of acetone:water (vol:vol), plus Kinetic® HV at a rate of 0.01% v/v.
Thrips potency of each compound was evaluated by using a floral-immersion technique. All petals of individual, intact orchid flowers were dipped into treatment solution and allowed to dry in Petri dishes. Treated petals were placed into individual re-sealable plastic along with about 20 adult thrips. All test arenas were held under continuous light and a temperature of about 28° C. for duration of the assay. After 3 days, the numbers of live thrips were counted on each petal. The percent mortality was recorded 72 hours after treatment.

[2] = tested on: Diamond Back Moth (Plutella xylostella); assay: Diamond back moth, cabbage leaf dip test; conditions: 300 ppm, 3rd instar larvae, 72 hours after treatment
Experimental: The active compound is dissolved at the desired concentration in a mixture of 1:1 (vol:vol) distilled water:acetone. Surfactant (Alkamuls® EL 620) is added at a rate of 0.1% (vol/vol). The test solution is prepared at the day of use.
Leaves of cabbage were dipped in test solution and air-dried. Treated leaves were placed in petri dish enlined with moist filter paper and inoculated with ten 3rd instar larvae. Mortality was recorded 72 hours after treatment. Feeding damages were also recorded using a scale of 0-100%.

[3] = tested on: tobacco budworm (Heliothis virescens); assay: Tobacco budworm control, 96-well microtiter plate with insect diet and eggs; conditions: 800 ppm; sprayed onto insect diet; assessed after 5 days
Experimental: For evaluating control of tobacco budworm (Heliothis virescens) the test unit consisted of 96-well-microtiter plates containing an insect diet and 15-25 H. virescens eggs.
The compounds were formulated using a solution containing 75% v/v water and 25% v/v DMSO. Different concentrations of formulated compounds were sprayed onto the insect diet at 10 μl, using a custom built micro atomizer, at two replications.
After application, microtiter plates were incubated at about 28±1° C. and about 80±5% relative humidity for 5 days. Egg and larval mortality was then visually assessed.

[4] = tested on: yellow fever mosquito (Aedes aegypti); conditions: 800 ppm; freshly hatched larvae in tap water; assessed after 2 days
Experimental: For evaluating control of yellow fever mosquito (Aedes aegypti) the test unit consisted of 96-well-microtiter plates containing 200 μl of tap water per well and 5-15 freshly hatched A. aegypti larvae. The active compounds were formulated using a solution containing 75% (v/v) water and 25% (v/v) DMSO. Different concentrations of formulated compounds or mixtures were sprayed onto the insect diet at 2.5 μl, using a custom built micro atomizer, at two replications.
After application, microtiter plates were incubated at 28+1° C., 80+5% RH for 2 days. Larval mortality was then visually assessed.

[5] = tested on: Western Flower Thrips (Frankliniella occidentalis); assay: Western flower thrips on leaf discs of sprayed cotton plants; conditions: 300 ppm, 2 DAT (days after treatment)
Experimental: The active compounds were formulated by a Tecan liquid handler in 100% cyclohexanone as a 10,000 ppm solution supplied in tubes. The 10,000 ppm solution was serially diluted in 100% cyclohexanone to make interim solutions. These served as stock solutions for which final dilutions were made by the Tecan in 50% acetone:50% water (v/v) into 10 or 20 ml glass vials. A nonionic surfactant (Kinetic®) was included in the solution at a volume of 0.01% (v/v). The vials were then inserted into an automated electrostatic sprayer equipped with an atomizing nozzle for application to plants/insects.
Small (˜2″ in height) cotton plants are sprayed with test compounds at concentrations ranging from 300 to 0.01 ppm in acetone/water through the automated VPS. After drying, cotton leaves are removed and circular leaf discs (−1 cm diameter) are punched from the treated surface and transferred to clean 20 mL scintillation vials. Ten Western flower thrips (FRANOC) are aspirated into each scintillation vial. The vials with the leaf discs and thrips are kept in an upright incubator at 25° C. and 50% relative humidity with a 14:10 light:dark photoperiod. Each treatment is replicated twice.
Thrips mortality is assessed at 2 DAT (days after treatment), counting all thrips both dead and alive. [The average absolute mortality is calculated for each treatment.]

[6] = tested on: boll weevil (Anthonomus grandis); assay: Boll weevil control, 96-well microtiter plate with insect diet and eggs; conditions: 800 ppm; sprayed onto insect diet; assessed after 5 days
Experimental: For evaluating control of boll weevil (Anthonomus grandis) the test unit consisted of 96-well-microtiter plates containing an insect diet and 5-10 A. grandis eggs.
The compounds were formulated using a solution containing 75% v/v water and 25% v/v DMSO. Different concentrations of formulated compounds were sprayed onto the insect diet at 5 μl, using a custom built micro atomizer, at two replications.
After application, microtiter plates were incubated at about 25±1° C. and about 75±5% relative humidity for 5 days. Egg and larval mortality was then visually assessed.

Compound | mortality in comparison with untreated controls [1] | mortality in comparison with untreated controls [2] | mortality in comparison with untreated controls (egg and larval mortality) [3] | mortality in comparison with untreated controls (larval mortality) [4] | mortality in comparison with untreated controls [5] | mortality in comparison with untreated controls (egg and larval mortality) [6]
Cc1ccc(C(C)C)c(NC(=S)N/N=C/c2ccc3c(C(=O)Nc4ccc(OC(F)(F)F)cc4)nncc3c2)c1 [Compound C-12] | over 75% | over 75% | over 75% |  |  | 
CC(C)c1ccccc1N1C(=O)CS/C1=N\N=C\c1ccc2c(OCc3ccc(OC(F)(F)F)cc3)ncnc2c1 [Compound C-8] |  | over 75% | over 75% |  |  | 
CC(C)c1ccccc1NC(=S)N/N=C/c1ccc2c(OCc3ccc(OC(F)(F)F)cc3)ncnc2c1 [Compound C-6] |  | over 75% | over 75% |  |  | 
CC(C)c1ccccc1N1C(=O)CS/C1=N\N=C\c1ccc2c(NCc3ccc(OC(F)(F)F)cc3)ncnc2c1 [Compound C-4] |  | over 75% |  |  |  | 
CC(C)c1ccccc1N=C1SCC(=O)N1N=Cc1ccc2c(OCc3ccc(OC(F)(F)F)cc3)ncnc2c1 [Compound C-7] |  |  | over 75% |  |  | 
Cc1ccc(C(C)C)c(N2C(=O)CS/C2=N\N=C\c2ccc3c(C(=O)Nc4ccc(OC(F)(F)F)cc4)nncc3c2)c1 [Compound C-14] | over 75% | over 75% | over 75% | over 75% |  | 
CC(C)c1ccccc1NC(=S)N/N=C/c1ccc2c(C(=O)Nc3ccc(OC(F)(F)F)cc3)nncc2c1 [Compound C-9] |  | over 75% | over 75% | over 75% |  | 
CC(C)c1ccccc1N1C(=O)CS/C1=N\N=C\c1ccc2c(C(=O)Nc3ccc(OC(F)(F)F)cc3)nncc2c1 [Compound C-10] | over 75% | over 75% | over 75% | over 75% | over 75% | 
CC(C)c1ccccc1N=C1SCC(=O)N1N=Cc1ccc2c(C(=O)Nc3ccc(OC(F)(F)F)cc3)nncc2c1 [Compound C-11] | over 75% | over 75% | over 75% | over 75% |  | 
CC(C)c1ccccc1NC(=S)N/N=C/c1ccc2c(NCc3ccc(OC(F)(F)F)cc3)ncnc2c1 [Compound C-3] |  | over 75% | over 75% |  |  | over 75%
